Earlier results in patent US12564599B2, “Pharmaceutical composition comprising tetrahydrocannabivarin for the prevention and treatment of overweight” (CepVentures International Corporation, priority 2019, dated 2026).
Some entries share one result that the patent states for a list of compounds. Some compounds share one range, which may span the group rather than tell each member.

Settings: drug compared to placebo

For `CCCCCCCCCCC[C@@H](C[C@@H]1OC(=O)[C@H]1CCCCCC)OC(=O)[C@H](CC(C)C)NC=O` [Orlistat], the “weight loss of body weight” value is given as 5%-10%.
